From PubChem BioAssay record AID504749 (NCATS, 2011).

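A panel of P. falciparum strains inside erythrocytes is exposed to compounds for three days, then a DNA-binding dye reports the amount of parasite DNA.
Each compound was titrated across a series from about 0.000037 to 29 µM.
The number is the fitted AC50, the concentration giving a half-maximal change in signal; a lower value means higher potency, whether the curve shows a decrease or an increase.
Calls follow the curve class and fit quality: every row here is inconclusive, covering signal-raising curves and weak, poorly fitted, partial or highest-dose-only inhibition curves.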

Values are in nM.
All entries here are filed as inconclusive.
These entries are mostly ones the record files as inconclusive; other results of the assay are not listed here.
A potency from a partial, single-point or poor curve is only a rough figure.
Some entries filed as inconclusive have a full curve.
The first word of each remark tells which way the curve ran; it can be opposite to the aim of the assay.

{"smiles": "COc1ccc(C(=O)c2c(C)n(CCN3CCOCC3)c3ccccc23)cc1", "condition": "GB4", "potency (nM)": "16944", "curve": "inhibitor, single point"}
{"smiles": "COc1ccc(C(=O)c2c(C)n(CCN3CCOCC3)c3ccccc23)cc1", "condition": "P94_40", "potency (nM)": "17782", "curve": "inhibitor, single point"}
{"smiles": "COc1ccc(C(=O)c2c(C)n(CCN3CCOCC3)c3ccccc23)cc1", "condition": "DIV14", "potency (nM)": "9528", "curve": "inhibitor, single point"}
{"smiles": "COc1ccc(C(=O)c2c(C)n(CCN3CCOCC3)c3ccccc23)cc1", "condition": "CP250", "potency (nM)": "1000", "curve": "inhibitor, single point"}
{"smiles": "COc1ccc(C(=O)c2c(C)n(CCN3CCOCC3)c3ccccc23)cc1", "condition": "CP266", "potency (nM)": "3381", "curve": "activator, partial curve, poor fit"}
{"smiles": "COc1ccc(C(=O)c2c(C)n(CCN3CCOCC3)c3ccccc23)cc1", "condition": "ICS", "potency (nM)": "17782", "curve": "inhibitor, single point"}
{"smiles": "COc1ccc(C(=O)c2c(C)n(CCN3CCOCC3)c3ccccc23)cc1", "condition": "DIV17", "potency (nM)": "19011", "curve": "inhibitor, single point"}
{"smiles": "COc1ccc(C(=O)c2c(C)n(CCN3CCOCC3)c3ccccc23)cc1", "condition": "PC26", "potency (nM)": "9528", "curve": "inhibitor, partial curve, poor fit"}
{"smiles": "CN(C)CCCN1c2ccccc2CCc2ccc(Cl)cc21", "condition": "PC15", "potency (nM)": "5012", "curve": "inhibitor, partial curve"}
{"smiles": "CN(C)CCCN1c2ccccc2CCc2ccc(Cl)cc21", "condition": "PC26", "potency (nM)": "5358", "curve": "inhibitor, partial curve"}
{"smiles": "CN(C)CCCN1c2ccccc2CCc2ccc(Cl)cc21", "condition": "TAB109", "potency (nM)": "10000", "curve": "inhibitor, single point"}
{"smiles": "CN(C)CCCN1c2ccccc2CCc2ccc(Cl)cc21", "condition": "CP194", "potency (nM)": "7569", "curve": "inhibitor, partial curve"}
{"smiles": "CN(C)CCCN1c2ccccc2CCc2ccc(Cl)cc21", "condition": "ECU", "potency (nM)": "10000", "curve": "inhibitor, partial curve, poor fit"}
{"smiles": "CN(C)CCCN1c2ccccc2CCc2ccc(Cl)cc21", "condition": "CP266", "potency (nM)": "84.9", "curve": "inhibitor, full curve, poor fit"}
{"smiles": "CN(C)CCCN1c2ccccc2CCc2ccc(Cl)cc21", "condition": "CP203", "potency (nM)": "11995", "curve": "inhibitor, single point"}
{"smiles": "CN(C)CCCN1c2ccccc2CCc2ccc(Cl)cc21", "condition": "CP335", "potency (nM)": "2686", "curve": "inhibitor, full curve"}
{"smiles": "CN(C)CCCN1c2ccccc2CCc2ccc(Cl)cc21", "condition": "CP256", "potency (nM)": "6310", "curve": "inhibitor, partial curve"}
{"smiles": "CN(C)CCCN1c2ccccc2CCc2ccc(Cl)cc21", "condition": "TAB165", "potency (nM)": "6310", "curve": "inhibitor, partial curve"}
{"smiles": "CN(C)CCCN1c2ccccc2CCc2ccc(Cl)cc21", "condition": "AA1029", "potency (nM)": "5012", "curve": "inhibitor, partial curve"}
{"smiles": "CN(C)CCCN1c2ccccc2CCc2ccc(Cl)cc21", "condition": "AS120", "potency (nM)": "11220", "curve": "inhibitor, partial curve"}
{"smiles": "CN(C)CCCN1c2ccccc2CCc2ccc(Cl)cc21", "condition": "P93_24", "potency (nM)": "3981", "curve": "inhibitor, partial curve"}
{"smiles": "CN(C)CCCN1c2ccccc2CCc2ccc(Cl)cc21", "condition": "CP192", "potency (nM)": "11995", "curve": "inhibitor, single point"}
{"smiles": "CN(C)CCCN1c2ccccc2CCc2ccc(Cl)cc21", "condition": "CP215", "potency (nM)": "15101", "curve": "inhibitor, single point"}
{"smiles": "CN(C)CCCN1c2ccccc2CCc2ccc(Cl)cc21", "condition": "ATS95", "potency (nM)": "10000", "curve": "inhibitor, single point"}
{"smiles": "CN(C)CCCN1c2ccccc2CCc2ccc(Cl)cc21", "condition": "CP260", "potency (nM)": "12589", "curve": "inhibitor, partial curve"}
{"smiles": "CN(C)CCCN1c2ccccc2CCc2ccc(Cl)cc21", "condition": "CP269", "potency (nM)": "13459", "curve": "inhibitor, partial curve"}
{"smiles": "CN(C)CCCN1c2ccccc2CCc2ccc(Cl)cc21", "condition": "CP191", "potency (nM)": "10000", "curve": "inhibitor, single point"}
{"smiles": "CN(C)CCCN1c2ccccc2CCc2ccc(Cl)cc21", "condition": "CP262", "potency (nM)": "19011", "curve": "inhibitor, partial curve, poor fit"}
{"smiles": "CN(C)CCCN1c2ccccc2CCc2ccc(Cl)cc21", "condition": "PAD", "potency (nM)": "7943", "curve": "inhibitor, partial curve"}
{"smiles": "CN(C)CCCN1c2ccccc2CCc2ccc(Cl)cc21", "condition": "CP297", "potency (nM)": "6746", "curve": "inhibitor, single point"}
{"smiles": "CN(C)CCCN1c2ccccc2CCc2ccc(Cl)cc21", "condition": "Dd2", "potency (nM)": "7080", "curve": "inhibitor, partial curve"}
{"smiles": "CN(C)CCCN1c2ccccc2CCc2ccc(Cl)cc21", "condition": "CP286", "potency (nM)": "11220", "curve": "inhibitor, partial curve"}
{"smiles": "CN(C)CCCN1c2ccccc2CCc2ccc(Cl)cc21", "condition": "CP291", "potency (nM)": "1200", "curve": "inhibitor, partial curve, poor fit"}
{"smiles": "CN(C)CCCN1c2ccccc2CCc2ccc(Cl)cc21", "condition": "DIV30", "potency (nM)": "6746", "curve": "inhibitor, partial curve"}
{"smiles": "CN(C)CCCN1c2ccccc2CCc2ccc(Cl)cc21", "condition": "P94_40", "potency (nM)": "8912", "curve": "inhibitor, partial curve"}

The first 2 entries again:

| SMILES | condition | potency (nM) | curve |
|---|---|---|---|
| `COc1ccc(C(=O)c2c(C)n(CCN3CCOCC3)c3ccccc23)cc1` | GB4 | 16944 | inhibitor, single point |
| `COc1ccc(C(=O)c2c(C)n(CCN3CCOCC3)c3ccccc23)cc1` | P94_40 | 17782 | inhibitor, single point |